Data as given in PubChem BioAssay AID1259424 (University of Nebraska Medical Center, 2018).
Aim: 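Find knockdowns that reproduce the expression shifts seen after KSR1 loss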 (primary screen). Cell system: human HCT116 colon cancer cells. Reagent: siRNA pool against human genes, 50 nM. Read-out: 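Six signature mRNAs by branched-DNA multiplex assay, scaled to two housekeeping genes and non-targeting median, log2; matched to mean KSR1 knockdown profile by Pearson correlation and euclidean distance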. Direction: mean correlation with KSR1 profile: higher = expression change more like KSR1 knockdown; mean distance from KSR1 profile: higher = expression change less like KSR1 knockdown.
The deposit covers about 14,000 reagents; this is a part drawn at random. 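Higher correlation or smaller distance means closer resemblance to KSR1 loss; control wells, including KSR1 knockdowns, recur on many plates.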 Further read-outs or replicates are left out here. Not given: the time to read-out.

| mean correlation with KSR1 profile | mean distance from KSR1 profile | Target gene |
| --- | --- | --- |
| 0.182 | 1.94 | OR1C1 |
| -0.601 | 5.63 | RBM25 |
| 0.145 | 1.58 | HSD17B1 |
| -0.294 | 2.61 | TVP23B |
| 0.058 | 1.43 | NEUROD4 |
| 0.388 | 2.63 | HTR2A |
| 0.0686 | 2.86 | ACCS |
| 0.709 | 0.698 | EPB41 |
| 0.204 | 2.89 | UBE2J1 |
| 0.0543 | 2.49 | HADHB |
| -0.767 | 2.87 | RNPC3 |
| 0.316 | 1.63 | TINAG |
| -0.223 | 5.44 | ZNF672 |
| 0.574 | 2.23 | YIPF5 |
| 0.304 | 1.33 | SIPA1L2 |
| -0.675 | 2.46 | CABP4 |
| -0.175 | 4.25 | COL20A1 |
| -0.143 | 2.51 | HDAC3 |
| -0.488 | 2.19 | LMAN2 |
| 0.655 | 2 | POLR2C |
| -0.139 | 2.29 | TM9SF4 |
| -0.0664 | 2.41 | CHD9 |
| 0.32 | 1.18 | TFAP2A |
| 0.276 | 1.11 | IL36G |
| -0.896 | 2.04 | ANKRD16 |
| 0.36 | 0.944 | GUCY1A1 |
| 0.128 | 4.05 | MAP4K1 |
| 0.673 | 2.02 | EIF2A |
| -0.145 | 3.32 | PRR16 |
| -0.242 | 3.82 | CHST5 |
| 0.302 | 1.24 | NPHP4 |
| -0.137 | 2.72 | CDC25C |
| 0.963 | 0.567 | GPR183 |
| -0.942 | 1.5 | SLC35D2 |

Laid out differently: entries from further up
MAP4K1
- mean correlation with KSR1 profile: 0.128
- mean distance from KSR1 profile: 4.05

EIF2A
- mean correlation with KSR1 profile: 0.673
- mean distance from KSR1 profile: 2.02

PRR16
- mean correlation with KSR1 profile: -0.145
- mean distance from KSR1 profile: 3.32

CHST5
- mean correlation with KSR1 profile: -0.242
- mean distance from KSR1 profile: 3.82

NPHP4
- mean correlation with KSR1 profile: 0.302
- mean distance from KSR1 profile: 1.24
